Data from US20110152358A1, “Compositions and Methods for Diagnosis and Treatment of Pancreatic Ductal Cancer” (priority 2008, published 2011).
“Also recorded” adds a separate entry of the source. At least one structure is not confirmed: it was looked up by name or label, or the drawing left a doubt.

Tested on: PANC-1 cells
Assay: Matrigel cell invasion assay, sham and 14-3-3σ overexpressing PANC-1 clones
Type: cell-based, human
Details: EGF 1 nmol/L; LY 294002 5 μmol/L, SB 203580 10 μmol/L, PP2 10 μmol/L; 20 hours; clone C1
Description: Cell invasion was measured as reported previously, with some modification (Rowland-Goldsmith, M. A. et al. 2001. Clin. Cancer Res. 7:2931-2940). Briefly, cells were suspended in 500 μL of serum-free medium (0.1% BSA) and placed onto the upper compartment of Matrigel-coated transwell chambers (8 μm pore sized, BioCoat Matrigel Invasion Chambers, BD Biosciences, San Jose, Calif.). The lower compartment was filled with 750 μL of medium containing serum free media in the absence or presence of the respective growth factors. After 18-20 hours, cells on the upper surface of the filter were carefully removed with a cotton swab and the membranes were fixed in methanol. The cells that had migrated through the membrane to the lower surface of the filter were stained with toluidine blue (Fisher Scientific, Fair Lawn, N.J.) and counted using a light microscope.

O=c1cc(N2CCOCC2)oc2c(-c3ccccc3)cccc12 [LY294002]
effect on EGF-mediated invasion in 14-3-3σ overexpressing clones: suppressed; also recorded: completely blocked
